Measured values taken from patent publication US11529390B2, “PCSK9 inhibitory polypolypeptides and methods of use” (INSTITUT DE CARDIOLOGIE DE MONTREAL, priority 2015, dated 2022).
At least one compound was matched to its structure with a doubt left.

Test system: PCSK9 and LDLR protein levels in HepG2 cells
Experiment: Geldanamycin treatment of HepG2 cells, immunoblot of PCSK9 and LDLR
Format: cell-based, human
Conditions: HepG2, 24 h, 1 or 5 μM

## COC1=C2C[C@@H](C)C[C@H](OC)[C@H](O)[C@@H](C)/C=C(\C)[C@H](OC(N)=O)[C@@H](OC)/C=C\C=C(/C)C(=O)NC(=CC1=O)C2=O [Geldanamycin]
  Effect on PCSK9 and LDLR total protein levels, proPCSK9 to PCSK9 autocatalytic activation and PCSK9 secretion: did not affect
